Results from paper PMC7887271, “Fast acting allosteric phosphofructokinase inhibitors block trypanosome glycolysis and cure acute African trypanosomiasis in mice” (Nature Communications, 2021).
Values joined by “and” are separate entries in the source; they are usually repeats but may differ in a detail not shown here. Equal entries are not always repeated. The source gives many values for each of these; only a part stands here.

Biological target: T1, TbPFK (Trypanosoma brucei brucei, UniProt O15648)
T1 construct: made in house; host or cells: Escherichia coli C41 (pET28a, codon optimised gene)
T1 sequence (O15648 1-487): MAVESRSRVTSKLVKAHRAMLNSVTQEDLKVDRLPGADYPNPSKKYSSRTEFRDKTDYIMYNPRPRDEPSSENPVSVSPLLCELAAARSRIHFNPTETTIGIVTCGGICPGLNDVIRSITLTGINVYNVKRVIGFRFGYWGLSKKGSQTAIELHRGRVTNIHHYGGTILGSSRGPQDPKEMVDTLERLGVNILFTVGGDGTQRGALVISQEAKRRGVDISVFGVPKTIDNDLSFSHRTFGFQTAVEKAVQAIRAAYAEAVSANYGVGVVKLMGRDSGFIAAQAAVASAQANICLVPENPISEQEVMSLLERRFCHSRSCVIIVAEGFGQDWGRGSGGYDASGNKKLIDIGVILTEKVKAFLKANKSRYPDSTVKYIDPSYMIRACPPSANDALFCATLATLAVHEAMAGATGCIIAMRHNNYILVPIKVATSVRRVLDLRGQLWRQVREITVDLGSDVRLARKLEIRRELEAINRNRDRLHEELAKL
Assay: ALDO/G3PDH/TIM linked enzyme assay for measuring PFK inhibition
Format: biochemical
Parameters: key: absorbance at 340 nm (NADH)
Description: In the PFK/PYK/LDH assay, the linked PYK activity acts to convert the ADP produced by PFK back to ATP. As ATP is an inhibitor of human PFK (but not TbPFK) at concentrations higher than ~0.5 mM the regeneration of ATP is likely to affect the assay readout. An alternative linked assay was therefore developed using PFK/aldolase (ALDO)/glycerol-3-phosphate dehydrogenase (G3PD)/triosephosphate isomerase (TIM). In this assay F16BP produced by PFK is subsequently converted by aldolase into dihydroxyacetone phosphate (DHAP) and glyceraldehyde 3-phosphate (GA3P). TIM interconverts GA3P and DHAP, and DHAP is reduced to glycerol 3-phosphate by G3PD, alongside the oxidation of NADH to NAD^+, which was measured by observing the change in UV absorbance at 340 nm for 10 minutes at 25° C using a Spectramax© M5 Multimode plate reader.
The assay buffer consisted of 50 mM TEA, 100 mM KCl, 10 mM MgCl2, 10% glycerol, 1 mM Tris(2-carboxyethyl)phosphine (TCEP), pH 7.4. Assay mix consisted of 5 U/ml G3PD (Sigma-Aldrich G6880), 2.5 U/ml ALDO (Sigma-Aldrich A2714), 25 U/ml TIM (Sigma-Aldrich T6258), and 1.25 mM NADH. ATP and F6P were obtained from Sigma-Aldrich (A2383 and F3627, respectively). All ligands and substrates (including ATP) were used at pH 7.4). 40 µl of assay mix, followed by 45 µl assay buffer, 4 µl of 0.1 mg/ml PFK and 1 µl of 100x serially diluted inhibitors were added to a non-binding, clear 96-well plate (Greiner Bio-One 655901) and incubated at RT for 10 minutes. The reaction was started by addition of 10 µl of 6 mM F6P (Supplementary Table 1).

CN(C)CCn1ccc2c(ccn2Cc2ccc(Cl)c(Cl)c2)c1=O [CTCB 405]
TbPFK reaction time course reading (Figure 6a) (1.29 uM CTCB 405, time 0.277778): 0.8008 and 0.7629
TbPFK reaction time course reading (Figure 6a) (1.29 uM CTCB 405, time 0.295139): 0.7991 and 0.762
TbPFK reaction time course reading (Figure 6a) (1.29 uM CTCB 405, time 0.3125): 0.7976 and 0.761
TbPFK reaction time course reading (Figure 6a) (1.29 uM CTCB 405, time 0.329861): 0.796 and 0.7587
TbPFK reaction time course reading (Figure 6a) (1.29 uM CTCB 405, time 0.347222): 0.7954 and 0.7588
TbPFK reaction time course reading (Figure 6a) (1.29 uM CTCB 405, time 0.364583): 0.7938 and 0.7583
TbPFK reaction time course reading (Figure 6a) (1.29 uM CTCB 405, time 0.381944): 0.7919 and 0.7571
TbPFK reaction time course reading (Figure 6a) (1.29 uM CTCB 405, time 0.399306): 0.7917 and 0.7553
TbPFK reaction time course reading (Figure 6a) (1.29 uM CTCB 405, time 0.416667): 0.7896 and 0.7548
TbPFK reaction time course reading (Figure 6a) (3.88 uM CTCB 405, time 0.0173611): 0.8137 and 0.7683
TbPFK reaction time course reading (Figure 6a) (3.88 uM CTCB 405, time 0.0347222): 0.8145 and 0.7686
TbPFK reaction time course reading (Figure 6a) (3.88 uM CTCB 405, time 0.0520833): 0.8155 and 0.7693
TbPFK reaction time course reading (Figure 6a) (3.88 uM CTCB 405, time 0.0694444): 0.8156 and 0.7696
TbPFK reaction time course reading (Figure 6a) (3.88 uM CTCB 405, time 0.0868056): 0.8168 and 0.7698
TbPFK reaction time course reading (Figure 6a) (3.88 uM CTCB 405, time 0.208333): 0.8183 and 0.7719
TbPFK reaction time course reading (Figure 6a) (3.88 uM CTCB 405, time 0.225694): 0.818 and 0.7716
TbPFK reaction time course reading (Figure 6a) (3.88 uM CTCB 405, time 0.243056): 0.8176 and 0.7712
TbPFK reaction time course reading (Figure 6a) (3.88 uM CTCB 405, time 0.260417): 0.8186 and 0.7717
TbPFK reaction time course reading (Figure 6a) (3.88 uM CTCB 405, time 0.277778): 0.8179 and 0.772
TbPFK reaction time course reading (Figure 6a) (3.88 uM CTCB 405, time 0.295139): 0.8179 and 0.772
TbPFK reaction time course reading (Figure 6a) (3.88 uM CTCB 405, time 0.3125): 0.8183 and 0.7709
TbPFK reaction time course reading (Figure 6a) (3.88 uM CTCB 405, time 0.329861): 0.8178 and 0.772
TbPFK reaction time course reading (Figure 6a) (3.88 uM CTCB 405, time 0.347222): 0.8175 and 0.7717
TbPFK reaction time course reading (Figure 6a) (3.88 uM CTCB 405, time 0.364583): 0.8172 and 0.7705
TbPFK reaction time course reading (Figure 6a) (3.88 uM CTCB 405, time 0.381944): 0.8177 and 0.771
TbPFK reaction time course reading (Figure 6a) (3.88 uM CTCB 405, time 0.399306): 0.8169 and 0.7714
TbPFK reaction time course reading (Figure 6a) (3.88 uM CTCB 405, time 0.416667): 0.8167 and 0.7713
TbPFK reaction time course reading (Figure 6a) (11.66 uM CTCB 405, time 0.0173611): 0.8163 and 0.771
TbPFK reaction time course reading (Figure 6a) (11.66 uM CTCB 405, time 0.0347222): 0.8163 and 0.7722
TbPFK reaction time course reading (Figure 6a) (11.66 uM CTCB 405, time 0.0520833): 0.817 and 0.772
TbPFK reaction time course reading (Figure 6a) (11.66 uM CTCB 405, time 0.0694444): 0.8178 and 0.7728
TbPFK reaction time course reading (Figure 6a) (11.66 uM CTCB 405, time 0.0868056): 0.8181 and 0.7732
TbPFK reaction time course reading (Figure 6a) (11.66 uM CTCB 405, time 0.208333): 0.8205 and 0.7747
TbPFK reaction time course reading (Figure 6a) (11.66 uM CTCB 405, time 0.225694): 0.8216 and 0.7752
TbPFK reaction time course reading (Figure 6a) (11.66 uM CTCB 405, time 0.243056): 0.8211 and 0.7762
TbPFK reaction time course reading (Figure 6a) (11.66 uM CTCB 405, time 0.260417): 0.8207 and 0.7762
TbPFK reaction time course reading (Figure 6a) (11.66 uM CTCB 405, time 0.277778): 0.8211 and 0.776
TbPFK reaction time course reading (Figure 6a) (11.66 uM CTCB 405, time 0.295139): 0.8216 and 0.7765
TbPFK reaction time course reading (Figure 6a) (11.66 uM CTCB 405, time 0.3125): 0.8212 and 0.776
TbPFK reaction time course reading (Figure 6a) (11.66 uM CTCB 405, time 0.329861): 0.821 and 0.7757
TbPFK reaction time course reading (Figure 6a) (11.66 uM CTCB 405, time 0.347222): 0.8222 and 0.7763
TbPFK reaction time course reading (Figure 6a) (11.66 uM CTCB 405, time 0.364583): 0.8222 and 0.777
TbPFK reaction time course reading (Figure 6a) (11.66 uM CTCB 405, time 0.381944): 0.8214 and 0.7765
TbPFK reaction time course reading (Figure 6a) (11.66 uM CTCB 405, time 0.399306): 0.8213 and 0.7761
TbPFK reaction time course reading (Figure 6a) (11.66 uM CTCB 405, time 0.416667): 0.8222 and 0.7767
TbPFK reaction time course reading (Figure 6a) (35 uM CTCB 405, time 0.0173611): 0.7756 and 0.7745
TbPFK reaction time course reading (Figure 6a) (35 uM CTCB 405, time 0.0347222): 0.7764 and 0.775
TbPFK reaction time course reading (Figure 6a) (35 uM CTCB 405, time 0.0520833): 0.7768 and 0.776
TbPFK reaction time course reading (Figure 6a) (35 uM CTCB 405, time 0.0694444): 0.7773 and 0.7765
TbPFK reaction time course reading (Figure 6a) (35 uM CTCB 405, time 0.0868056): 0.7775 and 0.7762
TbPFK reaction time course reading (Figure 6a) (35 uM CTCB 405, time 0.208333): 0.7795 and 0.7789
TbPFK reaction time course reading (Figure 6a) (35 uM CTCB 405, time 0.225694): 0.7795 and 0.7793
TbPFK reaction time course reading (Figure 6a) (35 uM CTCB 405, time 0.243056): 0.7796 and 0.7785
TbPFK reaction time course reading (Figure 6a) (35 uM CTCB 405, time 0.260417): 0.7799 and 0.779
TbPFK reaction time course reading (Figure 6a) (35 uM CTCB 405, time 0.277778): 0.7802 and 0.7796
TbPFK reaction time course reading (Figure 6a) (35 uM CTCB 405, time 0.295139): 0.7801 and 0.7781
TbPFK reaction time course reading (Figure 6a) (35 uM CTCB 405, time 0.3125): 0.7802 and 0.7793
TbPFK reaction time course reading (Figure 6a) (35 uM CTCB 405, time 0.329861): 0.7804 and 0.7797
TbPFK reaction time course reading (Figure 6a) (35 uM CTCB 405, time 0.347222): 0.7805 and 0.78
TbPFK reaction time course reading (Figure 6a) (35 uM CTCB 405, time 0.364583): 0.7804 and 0.7795
TbPFK reaction time course reading (Figure 6a) (35 uM CTCB 405, time 0.381944): 0.7807 and 0.7799
TbPFK reaction time course reading (Figure 6a) (35 uM CTCB 405, time 0.399306): 0.7808 and 0.7801
TbPFK reaction time course reading (Figure 6a) (35 uM CTCB 405, time 0.416667): 0.7806 and 0.7805
